Reference: EP4786486A1 (Universidad Complutense De Madrid, priority 2023, dated 2025)

Assay: general procedure: Fmoc solid-phase peptide synthesis; TentaGel resin with Rink amide spacer, 0.24 mmol/g
Conditions: whole synthesis; for final purity (method not given): HPLC

Substance	isolated yield [%]	final purity (method not given) [%]
PEPTIDE1{[ac].R.F.T.R.E.S.L.A.A.I.E.K.[am]}|CHEM1{[FTC]}$PEPTIDE1,CHEM1,13:R3-1:R2$$$V2.0	18	95
PEPTIDE1{[Pal].F.T.R.E.S.L.A.A.I.E.K.[am]}$$$$V2.0	16	99
PEPTIDE1{[ac].F.T.R.E.S.L.A.A.I.E.K.R.[am]}$$$$V2.0	29	99
Pal-RFTRESLAAIE-NH2	13	97
PEPTIDE1{[Pal].R.F.T.R.E.S.L.A.A.I.E.K.[am]}$$$$V2.0	25	98
PEPTIDE1{[Pal].R.F.T.R.E.S.L.A.A.I.E.K.[am]}|CHEM1{[FTC]}$PEPTIDE1,CHEM1,13:R3-1:R2$$$V2.0	18	96
PEPTIDE1{[ac].R.F.T.R.E.S.L.A.A.I.E.[am]}$$$$V2.0	55	98
PEPTIDE1{[ac].F.T.R.E.S.L.A.A.I.E.K.[am]}$$$$V2.0	21	100

Strings that start with PEPTIDE1 are HELM notation: dots part the residues, brackets hold end groups and non-standard residues.
